US8779002B2, “Methods for treating a variety of diseases and conditions, and compounds useful therefor” (Salk Institute for Biological Studies, priority 2007, dated 2014)

Tested on: Wistar rats
Experiment: Open field locomotor activity in rats
Format: in vivo, rat
Settings: number of lines crossed in 5 minute acclimatization period

Structure (SMILES) | Fisher's PLSD for Locomotor Activity, Mean Diff. (*vehicle, treatment) (vehicle versus 5 mg/kg oral) | Fisher's PLSD for Locomotor Activity, Mean Diff. (*vehicle, treatment) (vehicle versus 10 mg/kg oral) | Fisher's PLSD for Locomotor Activity, Mean Diff. (*vehicle, treatment) (vehicle versus 25 mg/kg oral)
COc1cccc(/C=N/N(C(=O)C(F)(F)F)c2ccc(C)cc2C)c1 [Compound J147] | −52.875 | −43.375 | −49.750
COc1cc(/C=C/c2cc(/C=C/c3ccc(O)c(OC)c3)n(-c3ccccc3)n2)ccc1O [CNB-001] | 8.375 | −12.625 | 16.750
